± gives the standard deviation. The entries are a selection whose mix differs from that of the whole data set. Many entries were measured with a wide error.

In one assay the test system is MILI (PIWIL2) piRISC loaded with L1MC piRNA (26 nt). The assay is described as follows: pre-steady-state target cleavage rate (min^-1); MIWI and MILI are mouse PIWI proteins and EfPiwi is from a freshwater sponge; tags in brackets are library labels; higher = faster piRNA-guided slicing of the target. The settings on record: guide: L1MC piRNA 5'p-UAACUAAAUACUAUGCAAGCUGUAGG; auxiliary factor: 500 nM mouse GTSF1. As for the experimental part:
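Cleave-'n-Seq: a library of target RNAs (target site embedded in constant flanks, ACAGCATTCCGCGTTAGTGATATCCG... 5' flank; DNA-blocked outside the site) at 0.1 nM was incubated with 1 nM active mouse MILI or MIWI piRISC (synthetic 5'-monophosphorylated piRNA guide) with or without 500 nM mouse GTSF1 at 33 °C for 1 min to 16 h. Uncleaved targets were sequenced and normalised to non-target controls, and the pooled three trials were fitted to a burst-and-steady-state model to give the pre-steady-state cleavage rate (min^-1; k3 is constrained to at most 1e-4). Sequence is the target site only; target names encode pairing extent (gX:gY) and contiguous / 1-mismatch / 2-mismatch / bulge geometry. Fits with R² ≤ 0 are excluded.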
Turning to UCCUGGUACAGCAUGCAUAGUAUUUAGUAA, the “pre-steady-state target cleavage rate” value stood at 0.163 ± 0.02. Take UCCUGGAACAGCUUGCAAAGAAUUUAGUUA: the “pre-steady-state target cleavage rate” value is 0.102 ± 0.037.

As to UCCUGGAUGAGCUUGCAUACGUAUUUAGUUA, the “pre-steady-state target cleavage rate” value was 0.00188 ± 0.0076.

Turning to UCCUCCUACAGCUUGCUAUGUAUUUAGUAA, the “pre-steady-state target cleavage rate” value worked out at 0.021 ± 0.0069. With UCCUGGAUGUCGAACGUUACAUUUUAGUUA, the “pre-steady-state target cleavage rate” value amounted to 0.000162 ± 0.045.

Turning to UCCUGGUACAGCAUGCAUAGUAUAUAGUUA, the “pre-steady-state target cleavage rate” value amounted to 0.241 ± 0.038.

For UCCUCCUACAGCUUGCUAUGUAUUUAGUUA, the “pre-steady-state target cleavage rate” value turned out to be 0.0502 ± 0.011.

For UCCUGGAUCAGCUAGCAUUGUAUUUAGUUA, the “pre-steady-state target cleavage rate” value is 0.107 ± 0.014. For the sequence UCCUGGUACAGCUAGCAUAGAAUUUAGUUA, the “pre-steady-state target cleavage rate” value was found to be 0.313 ± 0.084. As to UCCUGGAUGAGCUUGCAUAGUGUUUAGUUA, the “pre-steady-state target cleavage rate” value was found to be 0.117 ± 0.016. In the case of UCCUGCUACAGCUUGCAUAGUAUAUUAGUUA, the “pre-steady-state target cleavage rate” value amounted to 0.389 ± 0.042. Consider UCCUCCUACAGCUUGCAUAGUAUAAAGAAA, for which the “pre-steady-state target cleavage rate” value came to 0.0951 ± 0.023. As to UCCUGGAUGAGCUUGCAUAGUAUAUACUUA, the “pre-steady-state target cleavage rate” value was 0.00262 ± 0.0058. UCCUCCUACUGCUUGCAUACUAUUUAGUUA: the “pre-steady-state target cleavage rate” value is 0.0694 ± 0.011.

Still in this assay, the particulars now being: guide: L1MC piRNA 5'p-UAACUAAAUACUAUGCAAGCUGUAGG; auxiliary factor: none (no GTSF1).
Regarding UCCUGCUACAGCUUGCAUACAUUUUAGUUA, the “pre-steady-state target cleavage rate” value came to 0.00209 ± 0.0037. As for UCCUGGUACAGCAUGCAUAGUAUUUAGUAA, the “pre-steady-state target cleavage rate” value worked out at 0.00467 ± 0.0031. For UCCUGGAUCAGCUUGCAUAGUAAUUUCAAA, the “pre-steady-state target cleavage rate” value was determined as 0.000751 ± 0.0061.

Consider UCCUGGAACAGCUUGCAAAGAAUUUAGUUA, for which the “pre-steady-state target cleavage rate” value came out at 0.00235 ± 0.0032. Regarding UCCUGGUACAGCUUGCAUAGUAUAAACAAA, the “pre-steady-state target cleavage rate” value amounted to 0.00104 ± 0.0076. Consider UCCUGGAUGAGCUUGCAUACGUAUUUAGUUA, for which the “pre-steady-state target cleavage rate” value was found to be 0.00117 ± 0.0053. Turning to UCCUGCUACAGCUUGCAUAGUAUUUACUAA, the “pre-steady-state target cleavage rate” value came to 0.00205 ± 0.0047. On the same count and under the same terms, for UCCUCCUACAGCUUGCUAUGUAUUUAGUAA the value was 0.00151 ± 0.0034; for “UCCUGGAUGUCCUUGCAUAGAUAAAUCAAA [g11:g19:cont:t1A]”, 0.000108 ± 0.034; for UCCUGGAUGUCGAACGUUACAUUUUAGUUA, 0.000325 ± 0.014. For the sequence UCCUGGUACAGCAUGCAUAGUAUAUAGUUA, the “pre-steady-state target cleavage rate” value is 0.00583 ± 0.0028.

UCCUGGAUGUCGAUGCAUAGUAUUAUGUUA: the “pre-steady-state target cleavage rate” value amounted to 0.00157 ± 0.0043. Consider UCCUCCUACAGCUUGCUAUGUAUUUAGUUA, for which the “pre-steady-state target cleavage rate” value was 0.00506 ± 0.0018. Same read-out and setting: then UCCUGGAUCAGCUAGCAUUGUAUUUAGUUA, with 0.00287 ± 0.0024; and UCCUGGAACAGCUUGCAUAGUAUAUACAAA, with 0.00112 ± 0.0049; and UCCUGGAUGAGCUUCCAUAGUAUUAAGUUA, with 0.000536 ± 0.0099. UCCUGGAUGAGCUUGGAUACUAUUUAGUUA: the “pre-steady-state target cleavage rate” value came out at 0.0016 ± 0.0042. In the case of UCCUGCUACAGCUUGCAUAGUUAAUUCAAA, the “pre-steady-state target cleavage rate” value amounted to 0.00143 ± 0.0057. Same read-out and setting: for UCCUGGUACAGCUAGCAUAGAAUUUAGUUA the value was 0.00285 ± 0.0039. Turning to UCCUGGUACACCUUGCAUAGUAUUUUGUUA, the “pre-steady-state target cleavage rate” value amounted to 0.00349 ± 0.0043. For the sequence UCCUGGAUGAGCUUGCAUAGUGUUUAGUUA, the “pre-steady-state target cleavage rate” value amounted to 0.00732 ± 0.0031. Still for that read-out and setting: then UCCUCCUACAGCUUGCAUAUUAUUUAGUUA, with 0.00236 ± 0.0033.

For the sequence UCCUCCUACAGCUUGGUUAGUAUUUACAAA, the “pre-steady-state target cleavage rate” value amounted to 0.00113 ± 0.0038. Turning to UCCUCCUACAGCUUGCAUAGUAUAAAGAAA, the “pre-steady-state target cleavage rate” value was determined as 0.00148 ± 0.0037.

On to UCCUGGAUGAGCUUGCAUAGUAUAUACUUA, for which the “pre-steady-state target cleavage rate” value came out at 0.00092 ± 0.0076. Still for that read-out and setting: for UCCUCCUACUGCUUGCAUACUAUUUAGUUA the value was 0.00355 ± 0.0019.

These data come from the supplement of paper PMC10338343.
